Data reported in patent publication US8143282B2, “Heterocyclic compounds” (S*BIO Pte Ltd., priority 2005, dated 2012).
The match of structure and compound is tentative.

Protein sequences, listed by entry. Tags and fused reporters are not part of them.
UniProt Q13547, whole entry: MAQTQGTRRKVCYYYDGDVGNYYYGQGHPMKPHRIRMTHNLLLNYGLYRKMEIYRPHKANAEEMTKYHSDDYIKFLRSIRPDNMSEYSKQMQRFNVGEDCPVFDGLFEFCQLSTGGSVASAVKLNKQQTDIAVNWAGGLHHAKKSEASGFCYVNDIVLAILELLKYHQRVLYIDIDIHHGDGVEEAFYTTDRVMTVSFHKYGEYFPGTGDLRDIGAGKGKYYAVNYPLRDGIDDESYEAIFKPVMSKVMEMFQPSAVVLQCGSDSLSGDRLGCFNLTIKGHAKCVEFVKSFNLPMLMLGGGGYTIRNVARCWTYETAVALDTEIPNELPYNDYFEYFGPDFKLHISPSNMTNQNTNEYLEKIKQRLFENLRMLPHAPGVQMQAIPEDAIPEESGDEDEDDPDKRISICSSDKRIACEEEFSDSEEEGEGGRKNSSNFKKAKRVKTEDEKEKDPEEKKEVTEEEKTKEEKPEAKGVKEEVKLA

Legend:
[1] = test system: Colo205 cells; assay: Cell-based proliferation assay for GI50 (CyQUANT), Colo205; conditions: read-out: Cellular or Growth Inhibition Activity in Colo205 cells, GI50, 96 h treatment
[2] = molecular target: HDAC1 enzyme (Homo sapiens, UniProt Q13547); assay: In vitro HDAC assay for determination of IC50 values (BIOMOL fluorescent-based HDAC activity assay); conditions: read-out: HDAC1 enzyme activity IC50

Structure (SMILES)	GI50 [1] [nM]	IC50 [2] [nM]
CCCCCCc1nc2cc(/C=C/C(=O)NO)ccc2n1C1CCCNC1 (stereo not drawn)	1230	100
CCCCc1nc2cc(/C=C/C(=O)NO)ccc2n1C1CCCNC1 (stereo not drawn)	4900	
